Library screen at single concentrations

The chains behind the UniProt entries cited, without tags or fusion partners. Residues count along the entry.
UniProt P9WFT3, whole entry: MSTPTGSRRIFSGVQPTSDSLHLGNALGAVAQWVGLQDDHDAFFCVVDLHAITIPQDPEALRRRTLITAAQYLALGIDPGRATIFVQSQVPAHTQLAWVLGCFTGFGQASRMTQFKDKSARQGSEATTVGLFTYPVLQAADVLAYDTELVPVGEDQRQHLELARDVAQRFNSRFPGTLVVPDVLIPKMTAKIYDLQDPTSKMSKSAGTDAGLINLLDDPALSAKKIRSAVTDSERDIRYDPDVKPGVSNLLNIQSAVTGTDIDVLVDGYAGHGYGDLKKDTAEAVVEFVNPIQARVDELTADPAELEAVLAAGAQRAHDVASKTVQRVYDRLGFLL
UniProt Q8IDJ8, 1-583: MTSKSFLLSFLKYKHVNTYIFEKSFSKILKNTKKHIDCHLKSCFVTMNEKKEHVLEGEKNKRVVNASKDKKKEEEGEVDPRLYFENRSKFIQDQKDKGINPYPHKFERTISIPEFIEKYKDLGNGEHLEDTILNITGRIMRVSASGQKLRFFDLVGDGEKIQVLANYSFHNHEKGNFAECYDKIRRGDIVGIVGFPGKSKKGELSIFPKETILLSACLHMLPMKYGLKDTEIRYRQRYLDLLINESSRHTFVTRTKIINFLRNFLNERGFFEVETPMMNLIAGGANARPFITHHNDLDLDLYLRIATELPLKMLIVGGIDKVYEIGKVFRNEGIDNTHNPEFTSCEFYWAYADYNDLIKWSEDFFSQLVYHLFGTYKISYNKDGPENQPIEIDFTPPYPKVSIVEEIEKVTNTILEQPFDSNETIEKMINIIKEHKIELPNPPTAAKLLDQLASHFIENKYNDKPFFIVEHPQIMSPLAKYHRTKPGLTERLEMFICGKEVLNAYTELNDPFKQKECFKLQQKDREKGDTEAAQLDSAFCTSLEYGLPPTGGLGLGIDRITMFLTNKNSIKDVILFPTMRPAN
UniProt P9WPC5, whole entry: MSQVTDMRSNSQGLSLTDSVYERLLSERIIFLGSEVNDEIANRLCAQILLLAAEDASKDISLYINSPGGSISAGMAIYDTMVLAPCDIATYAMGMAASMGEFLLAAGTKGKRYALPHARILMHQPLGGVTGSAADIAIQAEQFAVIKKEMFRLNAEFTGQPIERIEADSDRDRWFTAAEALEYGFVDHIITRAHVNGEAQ
UniProt P9WPC3, whole entry partner: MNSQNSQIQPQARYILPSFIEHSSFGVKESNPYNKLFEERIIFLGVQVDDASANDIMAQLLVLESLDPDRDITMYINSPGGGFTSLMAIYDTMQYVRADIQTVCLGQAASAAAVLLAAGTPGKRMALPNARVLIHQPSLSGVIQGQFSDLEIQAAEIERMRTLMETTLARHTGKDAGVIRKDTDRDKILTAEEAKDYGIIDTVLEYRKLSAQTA

From ChEMBL document CHEMBL3988442, “University of Dundee, Small-Polar-MMV Screening Library” (2021).

A: 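Enzyme assay of tryptophanyl-tRNA synthetase; the read-out is not stated. Target: Tryptophan-tRNA ligase, Mycobacterium tuberculosis (UniProt P9WFT3). Compounds at 10 µM. Direction is not recorded; retested compounds ran higher, which suggests that high means inhibition. About 65,000 compounds were tested under these conditions; 0.098% (about 64) showed 50% or more at least once.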
B: 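Lysine-tRNA ligase, Plasmodium falciparum 3D7 (UniProt Q8IDJ8). Enzyme assay of the cytosolic lysyl-tRNA synthetase in 384-well plates, read by luminescence. Concentration: 30 µM. Higher reads as stronger inhibition, judged from the few compounds that gave an IC50. Of about 69,000 compounds tested this way, about 49 (0.071%) reached 50% or more in at least one test.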
C: 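ClpP1P2, Mycobacterium tuberculosis (UniProt P9WPC5 and UniProt P9WPC3). Protease assay of ClpP1P2, read by the AMC dye that it sets free. Compounds at 50 µM. Higher reads as stronger inhibition, judged from the few compounds that gave an IC50. Most other retested compounds had strongly negative values. Size under these conditions: about 69,000 compounds, about 10 of them at 50% or above in at least one test.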

Each number is a percent effect as filed.
The controls that fix the scale are not given in the record; negative values are as filed.
This is an unselected part of the compounds tested.

SMILES: CCN1CCOCC12CCN(C(=O)C1CCCC1)CC2
A: 2.488%
B: -2.395%
C: -6.061%

SMILES: O=C(CCc1ccncc1)N1CCCC(n2cccn2)C1 (stereo unspecified)
A: -11.36%
B: -1.286%
C: -22.72%

SMILES: NC(=O)CN1CCC(c2noc3cc(F)ccc23)CC1
A: 76.44%
B: -1.11%
C: 13.51%

SMILES: Cc1nonc1CNC(=O)C(C)Oc1ccccc1F (stereo unspecified)
A: -2.154%
B: -0.8031%
C: -4.128%

SMILES: CC(C(=O)NCc1cccc(N2CCCC2=O)c1)S(C)(=O)=O (stereo unspecified)
A: -2.36%
B: -5.625%
C: -2.515%

SMILES: CC(C)CN1CC2(CCN(C(=O)c3cn4cccnc4n3)CC2)CC1=O
A: -2.991%
B: 0.01177%
C: -6.604%

SMILES: Cc1cc(N2CCOC(C(F)(F)F)C2)nc(-c2ccccc2O)n1 (stereo unspecified)
A: -2.346%
B: 0.5435%
C: 1.164%

SMILES: Cc1cnc(CN2CCCC(c3cc(C(N)=O)[nH]n3)C2)o1 (stereo unspecified)
A: 2.426%
B: 2.095%
C: 20.42%

SMILES: NC(=O)c1nc(CN2CCOC(C(F)(F)F)C2)no1 (stereo unspecified)
A: -0.819%
B: 4.439%
C: 5.285%

SMILES: O=C(NCCC1CN(C2CCCC2)CCO1)c1c[nH]c(=O)[nH]c1=O (stereo unspecified)
A: 2.725%
B: 7.655%
C: 6.77%

SMILES: O=C(c1occc1CN1C(=O)Cc2ccccc21)N1CC(O)C1
A: 4.361%
B: 4.951%
C: -10.66%

SMILES: CC(=O)N1CCc2ccc(S(=O)(=O)N3CCCCC3C)cc21 (stereo unspecified)
A: 0.1505%
B: 8.937%
C: -35.66%

SMILES: Cc1ccc(O)c(C(=O)N2CCC(CNC(=O)OC(C)(C)C)C2)c1 (stereo unspecified)
A: -1.125%
B: -1.084%
C: 4.564%

SMILES: CC(C)c1cccc(N2CCCC3(CCC(=O)N(C4CC4)C3)C2)n1 (stereo unspecified)
A: 7.195%
B: 7.997%
C: -8.131%

SMILES: Cc1[nH]nc(CCC(=O)N2CCCC(OCc3cccnc3)C2)c1C (stereo unspecified)
A: 2.757%
B: -1.649%
C: 9.32%

SMILES: CCCN(CCc1cccc(F)c1)c1ccc2nnnn2n1
A: -3.269%
B: 10.88%
C: -2.648%

SMILES: CCN1CC2(CCC1=O)CCN(C(=O)c1cn3cccnc3n1)CC2
A: -3.535%
B: 0.9296%
C: 6.618%

SMILES: COc1cccc(CN(C)C(=O)CN2CCN(c3nccs3)CC2)c1
A: -1.348%
B: 0.539%
C: -9.442%

SMILES: O=C1CC(c2ccsc2)c2sc(C(=O)O)c(-c3ccccc3)c2N1 (stereo unspecified)
A: 0.5848%
B: -1.387%
C: 6.064%

SMILES: Cc1cc(F)ccc1NC(=O)Cn1cc(C(=O)O)ccc1=O
A: 0.0849%
B: 0.4302%
C: 13.7%

SMILES: O=C(Nc1cnc(C2CC2)nc1)N1CCC(CN2CCCC2)C1 (stereo unspecified)
A: 0.3749%
B: 2.917%
C: 1.693%

SMILES: CN(C)CC(=O)N1CCN(C(=O)c2cccc3[nH]ncc23)CC1
A: -10.48%
B: -0.074%
C: -10.77%

SMILES: CC(Cn1cncn1)NCCN1CCc2ccccc21 (stereo unspecified)
A: 4.736%
B: 2.056%
C: -2.986%

SMILES: CC1(c2[nH]ncc2C(N)=O)CCN(S(=O)(=O)c2ccccc2)CC1
A: -2.474%
B: -1.338%
C: -16.34%

SMILES: Cc1ccnc(NC(=O)c2ccc(Cl)o2)c1
A: -22.21%
B: 3.484%
C: 8.53%

SMILES: O=C(NCCn1cnnc1C1CC1)c1c(O)cc(F)cc1F
A: 0.3236%
B: 2.082%
C: 7.909%

SMILES: COc1ccc2nnc(CCCC(=O)NCc3cccn3C)n2n1
A: 1.206%
B: 4.163%
C: 3.783%

SMILES: Cc1ccc(CN2CCN(Cc3cc(C)n[nH]3)CC2CCO)cc1 (stereo unspecified)
A: 3.61%
B: 1.989%
C: 8.051%

For reference, 2 entries once more:

CCN1CCOCC12CCN(C(=O)C1CCCC1)CC2 gave A: 2.488%; B: -2.395%; C: -6.061%.
CC(C)c1cccc(N2CCCC3(CCC(=O)N(C4CC4)C3)C2)n1 (stereo unspecified) gave A: 7.195%; B: 7.997%; C: -8.131%.